Construct, isoform or probe ends are uncertain for at least one entry. At least one result comes from cells or an extract, where the contact may be indirect.
Tested on: Hnf4α (Siganus canaliculatus (rabbitfish))
Experiment: EMSA supershift
Details: Hepatocyte nuclear extract, shift abolished by excess unlabeled probe, supershift with Hnf4α antibody; Beyotime Chemiluminescent EMSA Kit per manufacturer; antibody pre-incubated 30 min at 0-4 °C; 4% non-denaturing PAGE; salt and pH not stated; protein in an extract; label: 5' biotin on both strands

TCTGCACCCACACTTTGTACTTCACCTCG (double strand) [elovl5 promoter Hnf4α-1 probe (BF/BR)]
binding result: binds
